Results published in PubChem BioAssay AID1487 (National Center for Advancing Translational Sciences (NCATS), 2009).
Where “and” joins values, the source holds several entries; their conditions need not be identical. Equal entries are not always repeated. Some of the results follow. Further columns of the screen follow, without active or inactive calls. Compounds called inactive in the main read-out are mostly missing here. Words in brackets tell the shape of the fitted curve; partial curves, single points and poor fits give uncertain potencies.

Assay: qHTS Assay for Modulators of Lamin A Splicing
Conditions: HeLa LMNA splicing GFP/RFP minigene ratio, 48 h
Procedure, shortened: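 Read-out is the ratio of GFP to DsRed2 object intensity, acquired by 488 nm laser-scanning cytometry on HeLa lamin A-EGFP minigene reporter cells. Compound incubation 48 hrs at 37 °C in Opti-MEM with 2% FBS; DMSO 0.5% final.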

[1] = measured here: GFP splicing reporter channel
[2] = measured here: RFP viability control channel

SMILES	AC50 [1]	AC50 [2]
O=C(COc1ccc(C(=O)c2ccccc2)cc1)NCC(=O)Nc1ccccc1Br	14.1 µM [rising, partial curve, poor fit]	15.8 µM [rising, partial curve]
COc1cccc2c(=S)c(CCC(C)=O)c(C)[nH]c12	12.6 µM [rising, partial curve, poor fit]	–
O=c1ccc2ccc(OCc3nnc(-c4ccccc4Br)o3)cc2o1	–	12.6 µM [rising, single point]
CCOC(=O)c1c(NC(=O)c2cccs2)sc2c1CCN(C(=O)OCC)C2	12.6 µM [falling, single point]	14.1 µM [falling, single point]
CCC1(c2ccccc2)NC(=O)N(CC#N)C1=O (centres undefined)	–	0.0891 µM [falling, full curve, poor fit]
O=C(COC(=O)C12CC3CC(CC(O)(C3)C1)C2)NC12CC3CC(CC(C3)C1)C2	0.251 µM [rising, full curve, poor fit]	–
Cc1c(C(=O)NCc2ccco2)sc2nc(-c3ccccc3)cn12	–	12.6 µM [rising, partial curve, poor fit]
Nc1nc(Nc2ccccc2)nc2c1ncn2[C@@H]1O[C@H](CO)[C@H](O)[C@H]1O	25.1 µM [falling, single point]	0.000891 µM [falling, full curve, poor fit]
Cc1cc(S(=O)(=O)NCC(C)C)ccc1OCC(=O)NCc1ccccn1	5.62 µM [rising, partial curve, poor fit]	–
Cc1cc(NS(=O)(=O)c2ccccc2)cc(Cl)c1O	31.6 µM [rising, single point]	–
CC#CC[N+](C)(C)CCCCCCCCCCCC	3.55 µM [rising, full curve]	8.91 µM [rising, partial curve]
COc1cccc(-c2ccc3ncnc(NCc4cccnc4)c3c2)c1	17.8 µM [falling, partial curve]	10 µM [falling, partial curve]
Cc1ccc(NS(=O)(=O)c2ccc3c(c2)c(=O)n(C)c(=O)n3C)cc1F	–	35.5 µM [rising, single point]
Cc1ccc2[nH]c3c(N4CCN(Cc5ccccc5)CC4)ncnc3c2c1	11.2 µM [rising, partial curve]	12.6 µM [rising, partial curve]
CCN1C(=O)c2cccc3c(NC(=O)c4ccc(S(=O)(=O)N(C)C)cc4)ccc1c23	–	31.6 µM [rising, single point]
Cc1noc(C)c1CSc1ncnc2sc3c(c12)CCC(C)C3 (centres undefined)	35.5 µM [rising, single point]	35.5 µM [rising, single point]
CC(C)C(C(=O)OCC(=O)c1ccccc1)N1C(=O)C2C3C=CC(C3)C2C1=O (centres undefined)	0.141 µM [rising, full curve, poor fit]	–
O=C(NCc1ccccc1)Nc1cccn(Cc2ccccc2)c1=O	–	17.8 µM [rising, partial curve]
Cc1ccc2c(c1)nnn2C1CCN(CC(=O)Nc2ccc3c(c2)OCCO3)CC1	–	11.2 µM [rising, single point]
CCOC(=O)c1c(NC(=O)C2=C(C)NC(=S)NC2c2ccc(F)cc2)sc(C)c1C (centres undefined)	11.2 µM [rising, partial curve]	25.1 µM [rising, single point]
COc1ccc(N2CCN(CCCNC(=O)Cn3c(-c4cccs4)cc4ccccc43)CC2)cc1	11.2 µM [falling, partial curve]	–
O=C(CCSc1ccccc1Cl)Nc1cccc([N+](=O)[O-])c1	11.2 µM [rising, single point]	20 µM [rising, single point]
O=C(Nc1ccc(Cl)cc1C(=O)NCc1cccnc1)c1ccc(Cl)cc1Cl	–	2 µM [rising, partial curve]
Fc1ccc(/C=N/NC2=Nc3cccc4cccc2c34)cc1	35.5 µM [falling, single point]	35.5 µM [falling, single point]
Cc1ccc(C(=O)/C=C/c2cn(CC(O)CN3CCOCC3)c3ccccc23)cc1 (centres undefined)	–	11.2 µM [rising, partial curve, poor fit]
Cc1cc(C(=O)CSc2n[nH]c(-c3ccccc3F)n2)c(C)n1Cc1cccs1	–	22.4 µM [rising, single point]
CCN(CC)CCCN(C(=O)c1cccs1)c1nc(-c2ccc(OC)cc2)cs1	35.5 µM [rising, single point]	–

Reformatted as a markdown table: 11 of the compounds above.

| SMILES | AC50 [1] | AC50 [2] |
| --- | --- | --- |
| O=C(COc1ccc(C(=O)c2ccccc2)cc1)NCC(=O)Nc1ccccc1Br | 14.1 µM [rising, partial curve, poor fit] | 15.8 µM [rising, partial curve] |
| Cc1cc(NS(=O)(=O)c2ccccc2)cc(Cl)c1O | 31.6 µM [rising, single point] | – |
| Cc1ccc2[nH]c3c(N4CCN(Cc5ccccc5)CC4)ncnc3c2c1 | 11.2 µM [rising, partial curve] | 12.6 µM [rising, partial curve] |
| CCN1C(=O)c2cccc3c(NC(=O)c4ccc(S(=O)(=O)N(C)C)cc4)ccc1c23 | – | 31.6 µM [rising, single point] |
| Cc1noc(C)c1CSc1ncnc2sc3c(c12)CCC(C)C3 (centres undefined) | 35.5 µM [rising, single point] | 35.5 µM [rising, single point] |
| CC(C)C(C(=O)OCC(=O)c1ccccc1)N1C(=O)C2C3C=CC(C3)C2C1=O (centres undefined) | 0.141 µM [rising, full curve, poor fit] | – |
| O=C(NCc1ccccc1)Nc1cccn(Cc2ccccc2)c1=O | – | 17.8 µM [rising, partial curve] |
| CCOC(=O)c1c(NC(=O)C2=C(C)NC(=S)NC2c2ccc(F)cc2)sc(C)c1C (centres undefined) | 11.2 µM [rising, partial curve] | 25.1 µM [rising, single point] |
| O=C(Nc1ccc(Cl)cc1C(=O)NCc1cccnc1)c1ccc(Cl)cc1Cl | – | 2 µM [rising, partial curve] |
| Cc1ccc(C(=O)/C=C/c2cn(CC(O)CN3CCOCC3)c3ccccc23)cc1 (centres undefined) | – | 11.2 µM [rising, partial curve, poor fit] |
| CCN(CC)CCCN(C(=O)c1cccs1)c1nc(-c2ccc(OC)cc2)cs1 | 35.5 µM [rising, single point] | – |

The listing continues.

SMILES	AC50 [1]	AC50 [2]
CC(NC(=O)/C(=C/c1ccc(OC(F)F)cc1)c1ccccc1)c1ccccc1 (centres undefined)	–	22.4 µM [rising, single point]
N#Cc1ccc(NCCc2ccccn2)c([N+](=O)[O-])c1	5.62 µM [rising, single point]	14.1 µM [falling, single point]
COc1ccc(CNC(=O)CN(c2ccccc2)S(=O)(=O)c2ccccc2[N+](=O)[O-])cc1	22.4 µM [falling, single point]	35.5 µM [falling, partial curve]
CCN(CC)S(=O)(=O)c1ccc(Cl)c(NC(=O)COC(=O)c2cc(-c3ccccc3Cl)nc3ccccc23)c1	3.55 µM [rising, single point]	–
O=C(c1ccc2c(c1)OCO2)C1CCCN(Cc2ccc3nsnc3c2)C1 (centres undefined)	15.8 µM [falling, partial curve, poor fit]	22.4 µM [falling, partial curve, poor fit]
Cc1cc(Cl)ccc1NC(=S)NCCC(c1ccccc1)c1ccccc1	–	35.5 µM [rising, single point]
COc1cc2c(cc1OC)C1Cc3ccc(OC)c(OC)c3CN1CC2 (centres undefined)	–	14.1 µM [rising, partial curve]
COc1ccc(/C=N/Nc2nc3ccccc3[nH]2)cc1OC	–	12.6 µM [rising, partial curve]
CC(C)(C)c1ccc(C(=O)Nc2ccc(N3CCOCC3)cc2)cc1	35.5 µM [rising, single point]	35.5 µM [rising, single point]
Cc1cccc(/C(N)=N/OC(=O)Cc2ccccc2)c1	1.26 µM [rising, partial curve]	–
COc1ccc(S(=O)(=O)N2CCOCC2)cc1NC(=O)c1cc2c(s1)CCCC2	12.6 µM [rising, single point]	17.8 µM [rising, partial curve, poor fit]
COC(=O)c1[nH]c2c(c1C)C(=O)CC(c1cc(OC)ccc1OC)C2 (centres undefined)	–	8.91 µM [rising, partial curve]
CCNc1nc(NCC)nc(SCCOC(=O)Nc2ccc(Cl)cc2Cl)n1	31.6 µM [rising, single point]	–
Cc1cc(C)c2cc(C#N)c(NCCNC(=S)NCCCN3CCOCC3)nc2c1	3.16 µM [falling, partial curve, poor fit]	–
O=C(COc1ccccc1C(=O)NCC1CCCO1)Nc1ccc(Cl)cc1Cl (centres undefined)	22.4 µM [falling, single point]	35.5 µM [falling, single point]
COc1cc(NC(=O)c2ccco2)c(OC)cc1NC(=O)c1cc(OC)c(OC)c(OC)c1	–	20 µM [rising, single point]
CC(C)(C)c1ccc(Cn2c(=N)n(CC(O)c3ccco3)c3ccccc32)cc1 (centres undefined)	15.8 µM [falling, partial curve]	20 µM [falling, partial curve, poor fit]
COc1ccc(-c2nc(CCNS(=O)(=O)c3ccc4c(c3)OCCO4)cs2)cc1	–	11.2 µM [rising, partial curve]
Oc1ccc(/C=C/c2cc(O)cc(O)c2)cc1	10 µM [falling, partial curve] and 25.1 µM [falling, single point]	5.01 nM [falling, full curve, poor fit] and 35.5 µM [rising, single point]
O=C(O)c1cccc(N2C(=O)/C(=C/c3ccc(SCc4ccc(Cl)cc4)o3)SC2=S)c1	–	14.1 µM [rising, partial curve, poor fit]
CCOC(=O)N1CCN(C(c2cccnc2)c2ccc3cccnc3c2O)CC1 (centres undefined)	7.08 µM [falling, single point]	12.6 µM [falling, partial curve, poor fit]
CC(C)CNS(=O)(=O)c1ccc(CCC(=O)N2CCN(Cc3ccccc3)CC2)cc1	–	3.16 µM [rising, single point]
CCCCCOC(=O)Cn1c(=O)c2c(nc(N3CCOCC3)n2C)n(C)c1=O	–	0.0562 µM [falling, full curve, poor fit]
O=C(Nc1ccc2c(c1)oc1ccccc12)C1CC1	–	3.16 µM [rising, partial curve, poor fit]
O=C(N/N=C/c1cccc([N+](=O)[O-])c1)c1ccc(Br)cc1	–	12.6 µM [falling, partial curve, poor fit]
O=C(Nn1c(SCc2ccc(F)cc2)nc2ccsc2c1=O)c1ccccc1	–	31.6 µM [rising, single point]
CCOc1ccc(/C=N/NC(=O)C(C)N(c2ccc(OC)cc2)S(C)(=O)=O)cc1 (centres undefined)	3.16 µM [falling, partial curve]	2.82 µM [falling, partial curve]
